# Assay results taken from PubChem BioAssay AID1487 (National Center for Advancing Translational Sciences (NCATS), 2009).
# The other results are listed elsewhere or left out. Further columns of the screen follow, without active or inactive calls. Compounds called inactive in the main read-out are mostly missing here. Words in brackets tell the shape of the fitted curve; partial curves, single points and poor fits give uncertain potencies.
# Test: qHTS Assay for Modulators of Lamin A Splicing
# Settings: HeLa LMNA splicing GFP/RFP minigene ratio, 48 h
# In short: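 Read-out is the ratio of GFP to DsRed2 object intensity, acquired by 488 nm laser-scanning cytometry on HeLa lamin A-EGFP minigene reporter cells. Compound incubation 48 hrs at 37 °C in Opti-MEM with 2% FBS; DMSO 0.5% final.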
# [1] = measured here: GFP splicing reporter channel
# [2] = measured here: RFP viability control channel
SMILES,AC50 [1],AC50 [2]
CC(C)NS(=O)(=O)c1ccc(OCC(=O)Nc2cccc(F)c2)cc1,"8.91 µM [falling, partial curve]",
O=C(O)c1ccc(-c2nc(-c3ccc(Cl)cc3)cs2)cc1,"35.5 µM [falling, single point]",
O=C(NCc1ccccc1F)c1ccc(S(=O)(=O)Nc2cccc(C(F)(F)F)c2)cc1,,"6.31 µM [rising, full curve, poor fit]"
Cc1ccc(S(=O)(=O)N2CC=C(c3c(C)n(C)c4ccccc34)CC2)cc1,,"2.82 µM [rising, partial curve]"
CC1(C)CC(N2CCCC2)=CC(=[N+]2CCCCCC2)C1,"0.891 µM [falling, full curve, poor fit]","1.26 µM [falling, full curve, poor fit]"
CCn1c(C)nc2cc(S(=O)(=O)C(F)(F)F)ccc21,,"14.1 µM [rising, partial curve, poor fit]"
COC(=O)c1cc(O)c(OCc2ccccc2)c(O)c1,,"25.1 µM [rising, single point]"
CCOC(=O)N1CCC(N2C(=O)c3ccc(C(=O)NCc4ccc(F)cc4)cc3C2=O)CC1,,"14.1 µM [rising, single point]"
CCOP(=O)(OCC)C(NC(=O)Nc1cccc(Cl)c1)C(N)=O (stereo not drawn),,"0.0282 µM [rising, full curve, poor fit]"
Cc1nc2sc(C(c3cccs3)N3CCN(c4cccc(Cl)c4)CC3)c(O)n2n1 (stereo not drawn),"22.4 µM [rising, single point]","14.1 µM [rising, partial curve, poor fit]"
O=C(NC(=S)Nc1ccc2c(c1)OCCO2)c1cccc(Br)c1,"0.112 µM [rising, full curve, poor fit]","0.316 µM [rising, partial curve, poor fit]"
C/C(=N\NC(N)=O)c1cccc(Cl)c1,"3.16 µM [falling, full curve, poor fit]",
COc1ccc(OC)c(/C=C/C(=O)Nc2ccc3c(c2)CCC3)c1,"15.8 µM [rising, single point]","35.5 µM [rising, single point]"
Cn1c(=O)c2c(nc(NCCc3ccccc3)n2Cc2ccccc2)n(C)c1=O,"22.4 µM [rising, single point]","35.5 µM [rising, single point]"
O=C(NCc1ccccn1)[C@H]1C[C@@H]1[C@H](NP(=O)(c1ccccc1)c1ccccc1)c1ccccc1,,"31.6 µM [rising, single point]"
CCOC(=O)CNC(=O)c1sc(NC(=O)c2cccc(F)c2)nc1C,"12.6 µM [rising, partial curve]",
Cc1ccc(C)c(N2CCN(C(=O)c3cnn(C(C)(C)C)c3C3CCN(C(=O)OC(C)(C)C)CC3)CC2)c1,"35.5 µM [falling, single point]","35.5 µM [falling, single point]"
CN(c1ccccc1)S(=O)(=O)c1ccc(C(=O)Nc2nnc(C3CC3)o2)cc1,,"31.6 µM [rising, single point]"

# Part of the list above in order of SMILES length, smallest number first.
SMILES,AC50 [1],AC50 [2]
C/C(=N\NC(N)=O)c1cccc(Cl)c1,"3.16 µM [falling, full curve, poor fit]",
O=C(NC(=S)Nc1ccc2c(c1)OCCO2)c1cccc(Br)c1,"0.112 µM [rising, full curve, poor fit]","0.316 µM [rising, partial curve, poor fit]"
COc1ccc(OC)c(/C=C/C(=O)Nc2ccc3c(c2)CCC3)c1,"15.8 µM [rising, single point]","35.5 µM [rising, single point]"

# (list continues)

SMILES,AC50 [1],AC50 [2]
COc1cc(/C=C2/NC(=O)N(CC(=O)Nc3ccc(C)cc3)C2=O)ccc1Oc1ccc([N+](=O)[O-])cn1,,"0.00141 µM [falling, full curve, poor fit]"
OCCNC(=S)Nc1ccc2nsnc2c1,,"2.82 µM [falling, partial curve]"
Cn1c(=O)c([N+](=O)[O-])c(Cl)c2ccccc21,"0.891 µM [falling, partial curve, poor fit]","17.8 µM [falling, partial curve, poor fit]"
CCS(=O)(=O)N1CCN(c2ccc([N+](=O)[O-])c(N3CCOCC3)c2)CC1,,"3.98 µM [falling, partial curve]"
COc1ccc(C)cc1NC(=O)N1CCC(CN2CCOCC2)CC1,,"0.02 µM [falling, full curve, poor fit]"
COc1ccc(OC)c(N(CC(=O)N2CCN(c3cc(Cl)ccc3C)CC2)S(C)(=O)=O)c1,,"35.5 µM [rising, single point]"
Cn1cccc1C(C#N)c1ncc(C(F)(F)F)cc1Cl (stereo not drawn),"2.82 µM [falling, partial curve]","3.16 µM [falling, partial curve, poor fit]"
CCOc1ccc2[nH]c(=O)c(CN(CCc3ccccc3)C(=O)N3CCOCC3)cc2c1,"35.5 µM [falling, single point]","11.2 µM [falling, partial curve]"
O=C(Cn1cc([N+](=O)[O-])cn1)NCC1CCCO1 (stereo not drawn),"11.2 µM [rising, single point]",
COc1ccc(/C=N/NC(=O)c2ccc(NC(=O)c3ccccc3Br)cc2)cc1,,"0.0398 µM [falling, full curve, poor fit]"
CS(=O)(=O)N(CC(=O)Nc1c(F)cccc1F)c1cccc([N+](=O)[O-])c1,,"3.98 µM [falling, partial curve]"
O=C(N/N=C/c1cccc(Cl)c1Cl)Nc1ccccc1,"22.4 µM [rising, partial curve, poor fit]","14.1 µM [rising, partial curve, poor fit]"
O=C(COc1ccc(-c2ccccc2)cc1)N1CCCC1,"17.8 µM [falling, single point]","15.8 µM [falling, single point]"
Cc1cccc(NC(=O)c2ccccc2O)c1C,"11.2 µM [rising, partial curve, poor fit]","17.8 µM [rising, single point]"
O=C(COc1ccc(S(=O)(=O)N2CCCC2)cc1)NCC1CCCO1 (stereo not drawn),"0.0316 µM [falling, full curve, poor fit]",
Cc1ccc(CCNC(=O)c2sc3ncccc3c2-n2c(C)ccc2C)cc1,,"17.8 µM [rising, partial curve, poor fit]"
CSc1nn(CCc2ccncc2)c(=S)s1,"12.6 µM [falling, partial curve]","28.2 µM [falling, single point]"
